PubChem BioAssay AID504764, Drosophila RNAi Screening Center | 2011
The deposit covers about 22,000 reagents; shown is a random part of those with a known target gene and a result. Of all reagents, 403 (1.9%) are marked active. 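Unnormalised raw counts per well; ratio z-scores behind the hit calls and whether each hit raises or lowers signal are not deposited.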 Names joined by + are all predicted targets of the reagent. Not stated in the record: the amount of reagent.

Test: 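Knock-downs that raise or lower a Notch target reporter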 (primary screen)
Cells: Drosophila Kc167 cells
Reagent: long dsRNA against Drosophila genes
Timing: about 5 days (4 days dsRNA, then 24 h after transfection)
Conditions: transfection of constitutively active membrane-tethered Notch lacking the extracellular domain, read 24 h later
Measured: 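Light from a Notch-responsive E(spl)m3 luciferase reporter under active Notch, with control-promoter and no-Notch reporter wells to normalise; raw counts from paired wells a and b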
Direction: induced reporter light, run 1, well a and induced reporter light, run 1, well b: higher = more light from the Notch target reporter with active Notch; control promoter light, run 1, well a and control promoter light, run 1, well b: higher = more light from the viral control promoter (cell number, transfection, viability); uninduced reporter light, run 1, well a: higher = more light from the Notch target reporter without active Notch
Active means: 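Wells with low control signal or poorly matching duplicates excluded; duplicates averaged; per source plate, z beyond ±2 for induced/control log2 ratio or beyond ±1.8 for induced/uninduced marks a hit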
Meaning of the calls: active = modifier hit (raised or lowered Notch signal); inactive = not a hit

predicted target	dsRNA	induced reporter light, run 1, well a	induced reporter light, run 1, well b	control promoter light, run 1, well a	control promoter light, run 1, well b	uninduced reporter light, run 1, well a	Call
CG5071	DRSC15710	1.85e5	1.45e5	1.69e5	1.54e5	11825	inactive
CG13437	DRSC06397	1.86e5	1.29e5	2.04e5	1.86e5	5920	inactive
CG2811	DRSC04318	1.69e5	1.67e5	1.63e5	1.57e5	10778	inactive
CG14321	DRSC14800	1.87e5	1.43e5	2.05e5	2.14e5	12320	inactive
Cyp4ac2	DRSC03303	1.76e5	1.71e5	1.87e5	1.81e5	12060	inactive
Vps24	DRSC12332	91990	85980	59110	72135	8250	inactive
CG33116	DRSC02045	2.07e5	1.95e5	2.45e5	2.73e5	17032	active
CR42548	DRSC09514	1.75e5	1.61e5	2.22e5	2.76e5	16750	inactive
CG1324	DRSC20496	1.31e5	1.24e5	99000	60645	10395	inactive
RpL24	DRSC03185	15765	17935	19085	17738	1675	inactive
CG10749	DRSC09798	1.41e5	1.21e5	2.03e5	1.38e5	7050	inactive
Pp2A-29B	DRSC03400	1.60e5	1.90e5	85430	1.03e5	19840	inactive
Cpr100A	DRSC14465	1.09e5	1.10e5	1.54e5	1.79e5	9730	inactive
mus302	DRSC09905	1.20e5	1.50e5	1.74e5	1.55e5	9310	inactive
Acp53C14c	DRSC05626	98680	90200	1.16e5	1.21e5	6940	inactive
CG2765	DRSC04315	1.90e5	1.72e5	1.66e5	1.77e5	13135	inactive
UGP + PGRP-LF	DRSC10418	1.65e5	1.51e5	2.34e5	2.38e5	9340	inactive
Sur	DRSC03447	2.61e5	2.54e5	2.40e5	2.65e5	16540	inactive
Rdh1	DRSC06812	2.18e5	1.92e5	2.35e5	1.97e5	19850	inactive
Faa	DRSC08451	1.22e5	1.53e5	76655	29140	12245	inactive
CG6923	DRSC16136	1.29e5	1.29e5	84930	73870	9505	inactive
CG3880	DRSC04428	1.81e5	1.56e5	1.33e5	1.79e5	12745	inactive
CG6333	DRSC10626	1.96e5	1.76e5	3.00e5	1.97e5	6742	inactive
CG15878	DRSC08486	1.03e5	1.27e5	1.77e5	1.36e5	6215	inactive
CG5697	DRSC15858	1.43e5	1.32e5	82405	82325	16510	inactive
Grip84	DRSC20248	1.76e5	1.70e5	1.68e5	1.05e5	13078	inactive
CG10859	DRSC02110	1.89e5	1.96e5	1.95e5	2.13e5	17355	inactive
CG4806	DRSC04491	1.24e5	1.12e5	1.25e5	1.22e5	6838	inactive
eIF3l	DRSC10530	1.44e5	1.40e5	1.32e5	1.09e5	12020	active
CG12069	DRSC14470	1.42e5	1.42e5	1.68e5	1.78e5	11850	inactive
CG5098	DRSC06915	89395	93420	1.75e5	1.58e5	7505	inactive
Ccp84Ad	DRSC12589	89920	62580	55615	45140	7635	inactive
CG6028	DRSC15951	1.63e5	1.27e5	1.91e5	2.36e5	11615	inactive
Lon	DRSC11049	1.24e5	1.94e5	93885	1.02e5	9925	inactive

Records listed so far whose target name starts with R or r (2):
predicted target	dsRNA	induced reporter light, run 1, well a	induced reporter light, run 1, well b	control promoter light, run 1, well a	control promoter light, run 1, well b	uninduced reporter light, run 1, well a	Call
RpL24	DRSC03185	15765	17935	19085	17738	1675	inactive
Rdh1	DRSC06812	2.18e5	1.92e5	2.35e5	1.97e5	19850	inactive
